Consider one molecule from patent US20210145972A1, “NAN[…] A NUCLEIC ACID SCAFFOLD AND VIRUS-BINDING PEPTIDE MOIETIES” (FRAUNHOFER-GESELLSCHAFT ZUR FÖRDERUNG DER ANGEWANDTEN …, priority 2017, published 2021).

These are yes or no findings as the source states them, for the method shown. Binding calls can cover weak binding; strength is not graded here.

Experiment [1] has as its target bromelain treated hemagglutinin (BHA) (influenza A virus). Nature of the experiment: microscale thermophoresis.
The target is the same in experiment [2]. As to the kind of experiment: microscale thermophoresis, BHA as ligand. (In general: MST reads how a fluorescent partner responds to local heating, with and without ligand.)

As for ARDFYDYDVFYYAMD (designed binder) [DNA-PeB3 nanostructure (three-branched DNA scaffold, structure N, with three PeB peptide moieties)], the binding result in experiment [1] and in experiment [2] was “binds” each time.
